Measured values taken from patent US7288256B1, “T cell epitopes of the major allergens from dermatophagoides (house dust mite)” (Merck Patent GmbH, priority 1991, dated 2007).
At least one peptide structure holds a part that was inferred or is arguable (an end, a ring closure or a residue). Some compounds share one wording; it may come from a single statement. Some results were stated once for a whole list of compounds, not compound by compound. Residues, ends and D or L forms follow the SMILES beside them.

Key:
[1] = test system: Der f I primed T cell lines; test: Secondary T cell proliferation assay, T cell lines primed in vitro with Der f I (Examples VI, VII, XI); format: cell-based, human; conditions: for T cell reactivity of overlapping Der f I peptides: 16 positive experiments, FIG. 6; for response of T cells from this patient to Der f I peptides: patient 783, primed with recombinant Der f I 20 μg/ml, data not shown
[2] = test system: Der p I primed T cell lines; test: Secondary T cell proliferation assay, T cell lines primed in vitro with Der p I (Examples V, VII, XI, XII); format: cell-based, human; conditions: for response of Der p I primed T cells to Der f I peptides (cross-reactivity): 14 positive experiments, FIG. 7

| SMILES | T cell reactivity of overlapping Der f I peptides [1] | response of T cells from this patient to Der f I peptides [1] | response of Der p I primed T cells to Der f I peptides (cross-reactivity) [2] | response of Der f I primed T cells to Der p I peptides (cross-reactivity) ([1]; 8 positive experiments, FIG. 8) | T cell reactivity of overlapping Der p I peptides in panel of patients ([2]; 33 positive experiments) | S.I. with which this patient responds ([2]; individual 543, primed with 20 μg/ml purified native Der p I, data not shown) |
| --- | --- | --- | --- | --- | --- | --- |
| CC[C@H](C)[C@H](NC(=O)[C@@H]1CCCN1C(=O)[C@@H](NC(=O)[C@@H](NC(=O)[C@@H](N)[C@@H](C)O)C(C)C)[C@@H](C)O)C(=O)N[C@@H](CCCNC(=N)N)C(=O)N[C@@H](CCSC)C(=O)N[C@@H](CCC(N)=O)C(=O)NCC(=O)NCC(=O)N[C@@H](CS)C(=O)NCC(=O)N[C@@H](CO)C(=O)N[C@@H](CS)C(=O)N[C@@H](Cc1c[nH]c2ccccc12)C(=O)N[C@@H](C)C(=O)N[C@@H](Cc1ccccc1)C(=O)N[C@@H](CO)C(=O)NCC(=O)N[C@H](C(=O)N[C@@H](C)C(=O)N[C@@H](C)C(=O)N[C@H](C(=O)N[C@@H](CCC(=O)O)C(=O)N[C@@H](CO)C(=O)N[C@@H](C)C(=O)N[C@@H](Cc1ccc(O)cc1)C(=O)N[C@@H](CC(C)C)C(=O)N[C@@H](C)C(=O)O)[C@@H](C)O)C(C)C [DF I-3] (H-TVTPIRMQGGCGSCWAFSGVAATESAYLA-OH; N-terminus and C-terminus assumed) | significant areas of T cell reactivity | respond | respond significantly |  |  |  |
| CC[C@H](C)[C@H](NC(=O)CNC(=O)[C@H](CCCNC(=N)N)NC(=O)[C@@H]1CCCN1C(=O)[C@@H](NC(=O)[C@@H](NC(=O)[C@H](CC(=O)O)NC(=O)CN)[C@@H](C)O)[C@@H](C)CC)C(=O)N[C@@H](CCC(=O)O)C(=O)N[C@@H](Cc1ccc(O)cc1)C(=O)N[C@H](C(=O)N[C@@H](CCC(N)=O)C(=O)N[C@@H](Cc1c[nH]cn1)C(=O)N[C@@H](CC(N)=O)C(=O)NCC(=O)N[C@H](C(=O)N[C@H](C(=O)N[C@@H](CCC(N)=O)C(=O)N[C@@H](CCC(=O)O)C(=O)N[C@@H](CO)C(=O)N[C@@H](Cc1ccc(O)cc1)C(=O)N[C@@H](Cc1ccc(O)cc1)C(=O)N[C@@H](CCCNC(=N)N)C(=O)N[C@@H](Cc1ccc(O)cc1)C(=O)N[C@H](C(=O)N[C@@H](C)C(=O)N[C@@H](CCCNC(=N)N)C(=O)N[C@@H](CCC(=O)O)C(=O)O)C(C)C)C(C)C)C(C)C)[C@@H](C)CC [DP I-5] (H-GDTIPRGIEYIQHNGVVQESYYRYVARE-OH; N-terminus and C-terminus assumed) |  |  |  | respond significantly | significant regions of T cell reactivity | at least 2.0 |
| CC[C@H](C)[C@H](NC(=O)CNC(=O)[C@H](Cc1ccc(O)cc1)NC(=O)[C@@H](N)Cc1c[nH]cn1)C(=O)N[C@@H](CO)C(=O)N[C@@H](CC(N)=O)C(=O)N[C@@H](Cc1ccc(O)cc1)C(=O)N[C@@H](CS)C(=O)N[C@@H](CCC(N)=O)C(=O)N[C@H](C(=O)N[C@@H](Cc1ccc(O)cc1)C(=O)N1CCC[C@H]1C(=O)N1CCC[C@H]1C(=O)N[C@@H](CC(=O)O)C(=O)N[C@H](C(=O)N[C@@H](CCCCN)C(=O)N[C@@H](CCC(N)=O)C(=O)N[C@H](C(=O)N[C@@H](CCCNC(=N)N)C(=O)N[C@@H](CCC(=O)O)C(=O)N[C@@H](C)C(=O)N[C@@H](CC(C)C)C(=O)O)[C@@H](C)CC)C(C)C)[C@@H](C)CC [DF I-15] (H-HYGISNYCQIYPPDVKQIREAL-OH; N-terminus and C-terminus assumed) | significant areas of T cell reactivity |  | respond significantly |  |  |  |
| CC(C)C[C@H](NC(=O)[C@H](CC(=O)O)NC(=O)[C@H](CC(C)C)NC(=O)[C@H](CO)NC(=O)[C@@H](NC(=O)[C@H](CC(N)=O)NC(=O)[C@H](CCCNC(=N)N)NC(=O)[C@@H](N)Cc1ccc(O)cc1)[C@@H](C)O)C(=O)N[C@@H](CO)C(=O)N[C@@H](CCC(=O)O)C(=O)N[C@@H](CCC(N)=O)C(=O)N[C@@H](CCC(=O)O)C(=O)N[C@@H](CC(C)C)C(=O)N[C@H](C(=O)N[C@@H](CC(=O)O)C(=O)N[C@@H](CS)C(=O)N[C@@H](C)C(=O)N[C@@H](CO)C(=O)N[C@@H](CCC(N)=O)C(=O)N[C@@H](Cc1c[nH]cn1)C(=O)NCC(=O)N[C@@H](CS)C(=O)O)C(C)C [DF I-11] (H-YRNTSLDLSEQELVDCASQHGC-OH; N-terminus and C-terminus assumed) | significant areas of T cell reactivity | respond | respond significantly |  |  |  |
| CC[C@H](C)[C@H](N)C(=O)N[C@H](C(=O)N[C@@H](CCC(N)=O)C(=O)N[C@@H](Cc1c[nH]cn1)C(=O)N[C@@H](CC(=O)O)C(=O)N[C@@H](CC(N)=O)C(=O)NCC(=O)N[C@@H](Cc1ccc(O)cc1)C(=O)N[C@@H](CCC(N)=O)C(=O)N1CCC[C@H]1C(=O)N[C@@H](CC(N)=O)C(=O)N[C@@H](Cc1ccc(O)cc1)C(=O)N[C@@H](Cc1c[nH]cn1)C(=O)N[C@@H](C)C(=O)N[C@H](C(=O)N[C@@H](CC(N)=O)C(=O)N[C@H](C(=O)N[C@H](C(=O)NCC(=O)N[C@@H](Cc1ccc(O)cc1)C(=O)NCC(=O)N[C@@H](CO)C(=O)N[C@H](C(=O)O)[C@@H](C)O)C(C)C)[C@@H](C)CC)C(C)C)[C@@H](C)CC [DF I-9] (H-IIQHDNGYQPNYHAVNIVGYGST-OH; N-terminus and C-terminus assumed) | significant areas of T cell reactivity | respond | respond significantly |  |  |  |
| CC(C)C[C@H](NC(=O)[C@H](Cc1ccc(O)cc1)NC(=O)[C@H](C)NC(=O)[C@H](CO)NC(=O)[C@H](CCC(=O)O)NC(=O)[C@@H](NC(=O)[C@H](C)NC(=O)[C@H](C)NC(=O)[C@@H](N)C(C)C)[C@@H](C)O)C(=O)N[C@@H](C)C(=O)N[C@@H](Cc1ccc(O)cc1)C(=O)N[C@@H](CCCNC(=N)N)C(=O)N[C@@H](CC(N)=O)C(=O)N[C@H](C(=O)N[C@@H](CO)C(=O)N[C@@H](CC(C)C)C(=O)N[C@@H](CC(=O)O)C(=O)N[C@@H](CC(C)C)C(=O)N[C@@H](CO)C(=O)N[C@@H](CCC(=O)O)C(=O)N[C@@H](CCC(N)=O)C(=O)O)[C@@H](C)O [DF I-4] (H-VAATESAYLAYRNTSLDLSEQ-OH; N-terminus and C-terminus assumed) | significant areas of T cell reactivity |  | respond significantly |  |  |  |
| CC[C@H](C)[C@H](NC(=O)[C@H](C)NC(=O)[C@@H](NC(=O)[C@H](Cc1c[nH]cn1)NC(=O)[C@@H](NC(=O)[C@H](CCC(N)=O)NC(=O)[C@H](Cc1ccccc1)NC(=O)[C@H](CC(C)C)NC(=O)[C@H](C)NC(=O)[C@H](CCC(=O)O)NC(=O)[C@H](CCCNC(=N)N)NC(=O)[C@@H](NC(=O)[C@H](CCC(N)=O)NC(=O)[C@H](CCCCN)NC(=O)[C@@H](NC(=O)[C@H](CC(=O)O)NC(=O)[C@@H]1CCCN1C(=O)[C@@H]1CCCN1C(=O)[C@@H](N)Cc1ccc(O)cc1)C(C)C)[C@@H](C)CC)[C@@H](C)O)[C@@H](C)O)C(=O)N[C@@H](C)C(=O)N[C@H](C(=O)N[C@H](C(=O)N[C@H](C(=O)NCC(=O)O)[C@@H](C)CC)[C@@H](C)CC)C(C)C [DF I-6] (H-YPPDVKQIREALFQTHTAIAVIIG-OH; N-terminus and C-terminus assumed) | significant areas of T cell reactivity | respond | respond significantly |  |  |  |
